Measured values: paper PMC4585563
Changes are numbered by the printed parent chain. Names and notes keep the numbering of the source. Results are given in words; binding and its absence hold for the method and conditions named. Some results given as binding are weak or reduced against the parent protein; the word gives no strength. Each block holds one binder with its values, some of them ahead of it.

Assays:
[1] = target: CTNNBL1 (residues 77-563), wild type (human) (UniProt Q8WYA6); assay: SEC; Superdex 200 10/300, 500 μl of 2 mg/ml protein, 0.5 ml/min, 40 mM Tris-HCl pH 8.0, 150 mM NaCl; molecular weight from calibration standards; both purified
[2] = target: CTNNBL1 (residues 77-563), wild type (human) (UniProt Q8WYA6); assay: SAXS; CTNNBL1/CDC5L complexes at 1.0-2.0 mg/ml, 40 mM Tris-HCl pH 8.0 without NaCl, 4 °C; ab initio models with P2 symmetry; both purified
[3] = target: CTNNBL1^L87R/I101R/G148R/Q192R/Q199R/Q238A/E278A/E282A (human) (UniProt Q8WYA6); assay: SEC; Superdex 200 10/300, 500 μl of 2 mg/ml protein, 0.5 ml/min, 40 mM Tris-HCl pH 8.0, 150 mM NaCl; molecular weight from calibration standards; both purified
[4] = target: CTNNBL1^L87R/I101R/G148R/Q192R/Q199R/Q238A/E278A/E282A (human) (UniProt Q8WYA6); assay: SAXS; eight-point CTNNBL1 mutant alone, 100 mM NaCl by the methods (150 mM NaCl by the results), 4 °C; both purified

binding [1]: binds
binding [2]: binds
B1: CTNNBL1 (residues 77-563), wild type (domain or fragment, UniProt Q8WYA6 77-563)
chain: LDESSVKKMILTFEKRSYKNQELRIKFPDNPEKFMESELDLNDIIQEMHVVATMPDLYHLLVELNAVQSLLGLLGHDNTDVSIAVVDLLQELTDIDTLHESEEGAEVLIDALVDGQVVALLVQNLERLDESVKEEADGVHNTLAIVENMAEFRPEMCTEGAQQGLLQWLLKRLKAKMPFDANKLYCSEVLAILLQDNDENRELLGELDGIDVLLQQLSVFKRHNPSTAEEQEMMENLFDSLCSCLMLSSNRERFLKGEGLQLMNLMLREKKISRSSALKVLDHAMIGPEGTDNCHKFVDILGLRTIFPLFMKSPRKIKKVGTTEKEHEEHVCSILASLLRNLRGQQRTRLLNKFTENDSEKVDRLMELHFKYLGAMQVADKKIEGEKHDMVRRGEIIDNDTEEEFYLRRLDAGLFVLQHICYIMAEICNANVPQIRQRVHQILNMRGSSIKIVRHIIKEYAENIGDGRSPEFRENEQKRILGLLENF

binding [3]: no binding (tested: 2 mg/ml injected)
binding [4]: no binding
B2: CTNNBL1^L87R/I101R/G148R/Q192R/Q199R/Q238A/E278A/E282A (domain or fragment, UniProt Q8WYA6 77-563)
chain: B1 chain with L11R, I25R, G72R, Q116R, Q123R, Q162A, E202A, E206A
